PubChem BioAssay (Tox21)
Inconclusive means that the source gave no clear call. Such entries were picked first, then a sample of the others. Where the call is inconclusive, the potency comes from a doubtful curve fit. The source made the active and inactive calls. Calls come from the whole dose curve; as a rule, active = well fitted cell-killing curve with a large enough effect in the repeat runs; inconclusive = weak or mixed curves, or effect the other way; inactive = flat fitted curve, though single readings scatter.

Assay: cAMP Responsive Elements (CRE) small molecule agonists, cell-based qHTS assay: qHTS cell viability counter screen (AID 2060914); note: nearly all actives have a fitted effect of over 50% in size
Summary of the method: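 Cells are seeded and incubated 18 h, treated with compounds in DMSO for 3 h, read for the bla reporter, then given CellTiter-Glo; luminescence is measured after 30 min at room temperature.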
Potency is the fitted concentration of half-maximal effect.

| Compound | Potency |
| --- | --- |
| CC1(C)[C@H](C(=O)O[C@H](C#N)c2cccc(Oc3ccccc3)c2)[C@@H]1C=C(Br)Br | inconclusive: 0.611 µM [cytotoxic, full curve, poor fit] |
| O=C(NC(=O)c1c(F)cccc1F)Nc1ccc(OC(F)(F)C(F)OC(F)(F)F)c(Cl)c1 (stereo not given) | inconclusive: 29.8 µM [cytotoxic, single point] |
| O=[N+]([O-])c1c(Cl)c(Cl)cc(Cl)c1Cl | inconclusive: 0.969 µM [cytotoxic, full curve, poor fit] |
| Cc1ccc(-c2nc3ccc(C)cn3c2CC(=O)N(C)C)cc1 | inactive |
| CCCCCCCc1ccc(O)cc1 | inconclusive: 0.611 µM [cytotoxic, single point] |
| CC(C)CP(=S)(S)CC(C)C | inactive |
| FC(F)(F)c1ccc(Cl)cc1 | inactive |
| NC(=O)C(Cl)(Cl)Cl | inactive |
| COC(=O)Cc1ccccc1 | inconclusive: 2.43 µM [cytotoxic, single point] |
| O=C(O)C1C2CCC(O2)C1C(=O)O (stereo not given) | inconclusive: 69.4 µM [rising, single point] |
| CC1COC2(c3ccccc3Cl)c3cc(Cl)ccc3NC(=O)CN12 (stereo not given) | inconclusive: 7.5 µM [cytotoxic, single point] |
| CCCCC(CC)COC(=O)c1ccccc1C(=O)OCC(CC)CCCC (stereo not given) | inconclusive: 0.611 µM [cytotoxic, single point] |
| CCNC(=O)NC(=O)/C(C#N)=N/OC | inactive |
| CCCCCCCCCCCCCl | inactive |
| CC(C)C(Nc1ccc(C(F)(F)F)cc1Cl)C(=O)OC(C#N)c1cccc(Oc2ccccc2)c1 (stereo not given) | inconclusive: 27.5 µM [cytotoxic, partial curve, poor fit] |
| CCCC[N+]1(C)CCCC1 | inconclusive: 0.544 µM [cytotoxic, single point] |
| CC(C)[C@@H](Nc1ccc(C(F)(F)F)cc1Cl)C(=O)OC(C#N)c1cccc(Oc2ccccc2)c1 (stereo not given in full) | inconclusive: 26.3 µM [cytotoxic, partial curve, poor fit] |
| COc1cc(CC(C)N)cc(OC)c1OC (stereo not given) | inactive |
| CC(Cc1ccc(OCC(=O)O)cc1)NCC(O)c1csc(C(F)(F)F)n1 (stereo not given) | inactive |
| O=C(O)C(F)(F)C(F)(F)C(F)(F)C(F)(F)C(F)(F)C(F)(F)F | inconclusive: 0.0049 µM [rising, full curve, poor fit] |
| CC(=O)[O-].CC(=O)[O-].[Hg+2] | active: 10.9 µM |
| Nc1c(Cl)c(F)nc(OCC(=O)O)c1Cl | inconclusive: 48.5 µM [cytotoxic, partial curve, poor fit] |
| CNC(=O)Oc1cccc(C(C)C)c1 | inactive |
| CC(C)(C)C(=O)Cl | inactive |
| C=CC(=O)[O][Sn]([CH2]CCC)([CH2]CCC)[CH2]CCC | active: 6.86 µM |
| c1ccc(C2CC2)c(OCC2=NCCN2)c1 | inactive |
| CNC(=O)N(C)c1nc2ccccc2s1 | inactive |
| CCCCC#N | inactive |
| O=C(O)c1ccccc1C(=O)Nc1cccc2ccccc12 | inconclusive: 77 µM [cytotoxic, single point] |

Reformatted as comma-separated lines: 2 of the compounds above.
Compound,Potency
Cc1ccc(-c2nc3ccc(C)cn3c2CC(=O)N(C)C)cc1,inactive
CCCCCCCc1ccc(O)cc1,"inconclusive: 0.611 µM [cytotoxic, single point]"
